# Assay results as given in patent publication US20220074941A1, “HSP90 COMBINATION THERAPY” (Sloan-Kettering Institute for Cancer Research, priority 2011, published 2022).
# Sequences of proteins named here, by UniProt entry; tags and fusion partners are left off. A change or cut given only in a name is not applied to a line headed by its entry.
# UniProt Q86X55: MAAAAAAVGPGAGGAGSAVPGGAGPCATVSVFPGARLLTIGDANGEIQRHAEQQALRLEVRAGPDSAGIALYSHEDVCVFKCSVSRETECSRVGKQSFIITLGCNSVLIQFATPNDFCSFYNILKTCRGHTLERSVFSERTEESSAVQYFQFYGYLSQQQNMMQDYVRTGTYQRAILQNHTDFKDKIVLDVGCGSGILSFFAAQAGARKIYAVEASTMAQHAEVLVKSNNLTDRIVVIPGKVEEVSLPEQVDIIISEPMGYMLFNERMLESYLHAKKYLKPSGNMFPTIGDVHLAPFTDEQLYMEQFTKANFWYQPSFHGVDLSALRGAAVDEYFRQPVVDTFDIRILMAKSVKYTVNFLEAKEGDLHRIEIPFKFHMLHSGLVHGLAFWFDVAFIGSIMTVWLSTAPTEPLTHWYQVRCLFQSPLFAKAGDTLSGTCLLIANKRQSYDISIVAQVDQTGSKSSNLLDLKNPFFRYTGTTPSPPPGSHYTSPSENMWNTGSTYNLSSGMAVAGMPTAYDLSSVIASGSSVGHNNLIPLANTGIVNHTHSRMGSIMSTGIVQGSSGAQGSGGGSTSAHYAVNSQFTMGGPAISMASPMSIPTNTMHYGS
# Results are given in words; binding and its absence hold for the method and conditions named. Binding calls can cover weak binding; strength is not graded here.
# Molecular target: histone-arginine methyltransferase CARM1 (human) (UniProt Q86X55)
# Test: sequential PU-H71-bead chemical precipitation from K562 extract, CML cell lines and primary CML cells, Western blot
substance,measurement,value
"heat shock protein 90 (Hsp90), endogenous, in human cancer and normal cell extracts (from UniProt P07900 2-732)",binding,binds
